Earlier results as cited in article PMC7856178 (Archives of biochemistry and biophysics, 2020).

Conditions: humans; cited from earlier work

CN1C(=O)CN=C(c2ccccc2)c2cc(Cl)ccc21 [diazepam]
Rate of metabolism under the influence of chronic alcohol exposure: increased rate of metabolism
